From US20180230213A1 come the findings set out here.

By UniProt entry, the sequences of proteins in these tests, tags left out. Residues count along the entry.
UniProt Q9UM47, residues 40-467: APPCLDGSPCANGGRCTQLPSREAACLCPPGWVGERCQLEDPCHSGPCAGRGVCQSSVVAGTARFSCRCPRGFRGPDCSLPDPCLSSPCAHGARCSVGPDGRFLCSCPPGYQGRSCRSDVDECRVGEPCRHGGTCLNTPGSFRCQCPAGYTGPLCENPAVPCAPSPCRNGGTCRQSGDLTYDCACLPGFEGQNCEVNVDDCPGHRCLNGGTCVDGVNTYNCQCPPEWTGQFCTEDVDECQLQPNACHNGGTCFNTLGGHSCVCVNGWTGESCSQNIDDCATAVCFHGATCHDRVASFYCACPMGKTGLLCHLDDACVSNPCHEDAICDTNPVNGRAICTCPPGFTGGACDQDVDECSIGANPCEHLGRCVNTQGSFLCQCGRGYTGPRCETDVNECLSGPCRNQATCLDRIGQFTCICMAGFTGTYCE
UniProt O00548, residues 22-540: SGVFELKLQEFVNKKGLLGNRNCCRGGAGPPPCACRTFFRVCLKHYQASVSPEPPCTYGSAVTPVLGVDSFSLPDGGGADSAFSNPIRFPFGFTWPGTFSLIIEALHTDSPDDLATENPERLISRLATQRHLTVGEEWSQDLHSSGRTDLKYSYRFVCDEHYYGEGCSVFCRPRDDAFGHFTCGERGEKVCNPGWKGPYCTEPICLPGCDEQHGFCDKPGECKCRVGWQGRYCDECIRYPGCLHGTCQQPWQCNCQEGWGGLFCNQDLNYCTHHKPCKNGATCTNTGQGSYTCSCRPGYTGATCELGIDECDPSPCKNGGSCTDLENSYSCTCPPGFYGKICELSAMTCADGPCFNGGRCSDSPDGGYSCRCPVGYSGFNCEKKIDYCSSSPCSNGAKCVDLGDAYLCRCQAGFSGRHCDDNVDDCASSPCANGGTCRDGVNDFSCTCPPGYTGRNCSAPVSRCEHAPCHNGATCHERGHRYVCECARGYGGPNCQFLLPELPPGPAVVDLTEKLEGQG

No constants are given. Whether binding was seen depends on the method and setting. Some entries that bind do so weakly or less than the wild type.

The experiment has as its target recombinant human Notch3 extracellular domain (containing EGF like domains 1-11) Fc fusion protein (human) (UniProt Q9UM47). Kind of experiment: BLI (Octet QK): rhNotch3 on the sensor, IgG in place of a Notch3 antibody, then the ligand in solution.

Consider “rhDLL1-Fc (from UniProt O00548 22-540) (Fc fusion)”, for which the binding result is reported as “binds”.
